Inconclusive results, whose numbers are uncertain, are shown with a selection of clear calls. Potencies of inconclusive entries are doubtful fits and often do not repeat. Active and inactive are the calls of the source. Calls come from the whole dose curve; as a rule, active = well fitted inhibition curve with a large enough effect in the signal ratio in the repeat runs (not every such curve was filed as active); inconclusive = weak or mixed curves, or effect the other way; inactive = no such curve, though single readings can be large or run the other way; the % refers to the signal ratio.
These molecules were tested against Vitamin D3 receptor (Homo sapiens) (UniProt P11473) (assay: qHTS assay to identify small molecule antagonists of the vitamin D receptor (VDR) signaling pathway (AID 743223)). Details: VDR-UAS-bla HEK293T, beta-lactamase FRET ratio, 16 h; activity change, negative = inhibition: at 61 µM (top of the series) unless noted.
From the text: U.S. Tox21 Program National Center for Advancing Translational Sciences [NCATS] NIH Chemical Genomics Center [NCGC] U.S. Environmental Protection Agency [EPA] National Institutes of Environmental Health Sciences [NIEHS] National Toxicology Program [NTP] U.S. Food and Drug Administration [FDA] Tox21 Assay Overview: The vitamin D receptor (VDR), a member of nuclear hormone receptor superfamily, plays a critical role in calcium homeostasis and bone metabolism. It is also involved in cell differentiation and growth, and thrombogenicity.
Tox21 Assay Protocol Summary: VDR-bla cells were dispensed at 2,000 cells/5 uL of assay medium per well into black wall/clear-bottom 1536-well plates using a Multidrop Combi (Thermo Fisher Scientific, Waltham, MA) dispenser. After the assay plates were incubated at a 37C and 5% CO2 for 4 h, 23 nL of compounds dissolved in DMSO, positive controls or DMSO only was transferred to the assay plate by a Pintool station (Kalypsys, San Diego, CA), followed by addition of 1 uL of 1alpha, 25-Dihydroxy Vitamin D3 (3 nM, final concentration in the wells) using a Bioraptr Flying Reagent Dispenser (FRD) workstation (Beckman Coulter, Indianapolis, IN). The plates were incubated at 37C and 5% CO2 for 16 h, and then 1 uL of LiveBLAzerTM B/G FRET substrate was added using a Bioraptr FRD. The plates were incubated at room temperature for 2 h and fluorescence intensity was measured by an Envision plate reader (PerkinElmer, Shelton, CT).
% is set by controls: 0 for no effect and ±100 for the full control effect; potency is the fitted concentration of half-maximal effect.

The chains behind the UniProt entries cited, without tags or fusion partners. Where a name states a change or a piece, a line headed by the entry shows the natural chain unless it says otherwise.
UniProt P11473: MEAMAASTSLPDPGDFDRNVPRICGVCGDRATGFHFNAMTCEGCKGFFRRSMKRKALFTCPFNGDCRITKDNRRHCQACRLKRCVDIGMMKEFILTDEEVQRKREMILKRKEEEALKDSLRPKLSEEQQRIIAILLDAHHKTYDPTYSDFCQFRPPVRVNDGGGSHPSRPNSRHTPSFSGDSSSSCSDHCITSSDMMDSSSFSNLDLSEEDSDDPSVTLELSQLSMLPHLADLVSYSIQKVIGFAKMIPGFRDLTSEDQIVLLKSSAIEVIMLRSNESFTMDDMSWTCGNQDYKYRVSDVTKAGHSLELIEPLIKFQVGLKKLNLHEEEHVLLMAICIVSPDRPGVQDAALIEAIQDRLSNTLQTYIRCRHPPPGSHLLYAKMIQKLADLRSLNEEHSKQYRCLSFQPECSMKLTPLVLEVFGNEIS

Row | Structure (SMILES) | activity change, negative = inhibition | Potency
1 | C=C(C)C(=O)OCC1CCCO1 (stereo not given) | inactive: -10.6% | 
2 | CC(C)NCC(O)COc1ccc(CCOCC2CC2)cc1 (stereo not given) | inactive: 12.2% | 
3 | CCOC(=O)OCC | inconclusive: 9.89% [at 78.8 µM] | 
4 | CN(C)CCCN(C)C | inactive: -1.32% [at 6.95 µM] | 
5 | COc1ccc(OC)c(OC)c1 | inactive: -3.04% | 
6 | CCNC(=O)/C=C/c1cccc(Br)c1 | inactive: 0.286% | 
7 | ClCCCl | inactive: 20.2% | 
8 | O=C1OC(=O)c2cc(Oc3ccc4c(c3)C(=O)OC4=O)ccc21 | inconclusive: 22.5% | 
9 | CCN(CC)CC(=O)Oc1ccc(NC(C)=O)cc1 | inconclusive: 23.9% | 
10 | CCCCOCCOC(=O)COc1ccc(Cl)cc1Cl | inconclusive: 31.5% | 
11 | CCC(C)(CN(C)C)OC(=O)c1ccccc1 (stereo not given) | inconclusive: 3.52% | 
12 | [K+] | inconclusive: -5.07% | 
13 | O=S(=O)(O)c1cc(O)c(O)c(S(=O)(=O)O)c1 | inconclusive: 17% | 
14 | CCOC(C)(C)C | inactive: -3.29% [at 78.8 µM] | 
15 | CCC(=O)Nc1cccc(N)c1 | inactive: -1.15% | 
16 | CN(C(=O)C(Cl)Cl)c1ccc(OC(=O)c2ccco2)cc1 | inconclusive: 32.1% [activator] | 
17 | CO | inconclusive: -21.1% | 
18 | COc1ccc(C(C)=O)cc1 | inactive: -4.98% [at 78.8 µM] | 
19 | CC1OC(=O)C(C)OC1=O (stereo not given) | inactive: -13.1% | 
20 | CC(C)C1CCC(O)CC1 (stereo not given) | inactive: 12.4% | 

Row | Structure (SMILES) | activity change, negative = inhibition | Potency
21 | NS(=O)(=O)c1ccccc1Cl |  | inconclusive: 21.9 µM [activator, partial curve, poor fit]
22 | CCc1nccnc1C | inconclusive: 3.88% | 
23 | [Ca+2] | inactive: -7.86% | 
24 | Cc1ccccc1OCC(=O)O | inconclusive: 14.1% | 
25 | CCC(=O)CC | inconclusive: 12.9% | 
26 | CC(CN)CC(C)(C)CCN (stereo not given) | inactive: 5.29% [at 78.8 µM] | 
27 | CC(=O)OC1CCCCC1C(C)(C)C (stereo not given) | inactive: 9.91% | 
28 | CCCCCC1CCCC(=O)O1 (stereo not given) | inactive: 5.97% | 
29 | O=C(O)c1cc(C(=O)O)cc([N+](=O)[O-])c1 |  | inconclusive: 21.9 µM [activator, single point]
30 | COC(C(=O)O)c1ccccc1 (stereo not given) | inactive: 26.7% | 
31 | COc1ccc(CCC(C)=O)cc1 |  | inconclusive: 54.9 µM [activator, single point]
32 | CCCc1ncc(C(=O)O)s1 | inactive: -5.21% | 
33 | CC(=O)OCC(=O)[C@@]1(O)CC[C@H]2[C@@H]3CCC4=CC(=O)C=C[C@]4(C)[C@H]3[C@@H](O)C[C@@]21C | inactive: 1.46% | 
34 | CC1=C(C=O)C(C)(C)CC=C1 | inconclusive: -0.287% [at 78.8 µM] | 
35 | O=C(c1ccc2c(c1)C(=O)OC2=O)c1ccc2c(c1)C(=O)OC2=O | inconclusive: 26.3% | 
36 | c1ccc2c(c1)Cc1ccccc1-2 |  | inactive
37 | CC(=O)CC(=O)N(C)C | inconclusive: -0.427% | 
38 | CCCCCCOC(=O)CCCCC(=O)OCCCCCC |  | inconclusive: 0.977 µM [activator, partial curve, poor fit]
39 | CCn1ccc(NS(=O)(=O)c2ccc(N)cc2)nc1=O | inconclusive: 2.4% | 

Pulled one by one from the list above (two):
Row | Structure (SMILES) | activity change, negative = inhibition | Potency
35 | O=C(c1ccc2c(c1)C(=O)OC2=O)c1ccc2c(c1)C(=O)OC2=O | inconclusive: 26.3% | 
30 | COC(C(=O)O)c1ccccc1 (stereo not given) | inactive: 26.7% | 

Same assay, conditions: VDR-UAS-bla HEK293T, beta-lactamase FRET ratio, 16 h; at 61 µM (top of the series)

Row | Structure (SMILES) | activity change, negative = inhibition
40 | CC(=O)CC(=O)N(C)C | inactive: 0.344%

Reference: PubChem BioAssay (Tox21)
